Source: patent US11873496
For at least one entry, the source does not settle the construct or the ends of the probe. Results from cells or extracts need not show a direct contact. A weaker result is weaker than the reference pair of the same experiment.

Chains of the proteins cited; added tags and fusions are not shown.
UniProt Q00899, whole entry: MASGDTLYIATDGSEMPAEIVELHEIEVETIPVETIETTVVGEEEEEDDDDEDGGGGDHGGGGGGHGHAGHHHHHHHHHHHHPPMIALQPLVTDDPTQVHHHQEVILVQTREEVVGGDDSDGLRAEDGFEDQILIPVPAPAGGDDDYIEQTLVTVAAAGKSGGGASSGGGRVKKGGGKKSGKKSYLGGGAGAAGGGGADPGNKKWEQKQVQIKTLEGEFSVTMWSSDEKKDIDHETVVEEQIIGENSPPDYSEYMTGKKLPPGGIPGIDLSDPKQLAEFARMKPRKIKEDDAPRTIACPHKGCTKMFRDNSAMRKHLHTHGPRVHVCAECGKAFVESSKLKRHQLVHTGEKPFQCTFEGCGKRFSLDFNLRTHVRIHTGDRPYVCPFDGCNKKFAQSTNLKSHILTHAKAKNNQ

Biological target: YY1 (Mus musculus) (UniProt Q00899)
Assay: binding assay
Conditions: ChIP-qPCR in mES cells; decreased vs wild type, p=0.0048; residual binding at additional CCAT motifs; protein in cells; protein details: endogenous, V6.5 mES cells; variant of Etv4 promoter wild type

**Q.** Does “ACTGTGTTTTCA (double strand) [Etv4 promoter YY1 motif deletion]” bind?
**A.** binds more weakly
